Measured values reported in patent US20130331325A1.
No constants are given. Whether binding was seen depends on the method and setting. Some results given as binding are weak or reduced against the parent protein; the word gives no strength.

Chains of the proteins cited; added tags and fusions are not shown. Lines headed by an entry give the natural chain unless they say otherwise; changes in a name come on top.
UniProt Q99N32: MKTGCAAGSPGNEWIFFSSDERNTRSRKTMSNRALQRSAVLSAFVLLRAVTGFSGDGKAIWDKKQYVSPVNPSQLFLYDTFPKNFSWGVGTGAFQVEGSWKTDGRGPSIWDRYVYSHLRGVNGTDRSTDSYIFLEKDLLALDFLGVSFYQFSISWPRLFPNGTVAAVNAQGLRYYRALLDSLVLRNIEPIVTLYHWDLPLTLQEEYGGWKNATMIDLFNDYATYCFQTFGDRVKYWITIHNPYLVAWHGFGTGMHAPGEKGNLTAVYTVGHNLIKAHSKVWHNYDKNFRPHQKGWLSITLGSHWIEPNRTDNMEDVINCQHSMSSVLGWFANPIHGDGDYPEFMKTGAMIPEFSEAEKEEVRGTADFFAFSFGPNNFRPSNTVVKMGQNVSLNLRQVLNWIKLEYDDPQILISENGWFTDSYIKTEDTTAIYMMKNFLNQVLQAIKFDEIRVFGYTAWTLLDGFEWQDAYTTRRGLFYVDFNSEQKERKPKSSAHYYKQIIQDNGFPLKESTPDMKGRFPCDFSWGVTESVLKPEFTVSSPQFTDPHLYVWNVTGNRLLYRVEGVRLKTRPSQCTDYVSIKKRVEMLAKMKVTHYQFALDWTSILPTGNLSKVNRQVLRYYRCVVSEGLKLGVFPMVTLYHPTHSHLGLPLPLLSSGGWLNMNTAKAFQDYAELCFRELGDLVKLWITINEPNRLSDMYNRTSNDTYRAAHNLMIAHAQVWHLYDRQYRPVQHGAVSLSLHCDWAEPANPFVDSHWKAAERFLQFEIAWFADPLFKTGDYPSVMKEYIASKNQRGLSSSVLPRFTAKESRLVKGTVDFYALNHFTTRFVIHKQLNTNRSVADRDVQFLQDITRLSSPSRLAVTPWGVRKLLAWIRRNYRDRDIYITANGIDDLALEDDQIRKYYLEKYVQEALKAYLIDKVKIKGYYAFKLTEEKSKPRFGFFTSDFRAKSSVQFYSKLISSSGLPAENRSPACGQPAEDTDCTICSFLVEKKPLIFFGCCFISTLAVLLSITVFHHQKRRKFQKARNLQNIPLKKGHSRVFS
UniProt P11362: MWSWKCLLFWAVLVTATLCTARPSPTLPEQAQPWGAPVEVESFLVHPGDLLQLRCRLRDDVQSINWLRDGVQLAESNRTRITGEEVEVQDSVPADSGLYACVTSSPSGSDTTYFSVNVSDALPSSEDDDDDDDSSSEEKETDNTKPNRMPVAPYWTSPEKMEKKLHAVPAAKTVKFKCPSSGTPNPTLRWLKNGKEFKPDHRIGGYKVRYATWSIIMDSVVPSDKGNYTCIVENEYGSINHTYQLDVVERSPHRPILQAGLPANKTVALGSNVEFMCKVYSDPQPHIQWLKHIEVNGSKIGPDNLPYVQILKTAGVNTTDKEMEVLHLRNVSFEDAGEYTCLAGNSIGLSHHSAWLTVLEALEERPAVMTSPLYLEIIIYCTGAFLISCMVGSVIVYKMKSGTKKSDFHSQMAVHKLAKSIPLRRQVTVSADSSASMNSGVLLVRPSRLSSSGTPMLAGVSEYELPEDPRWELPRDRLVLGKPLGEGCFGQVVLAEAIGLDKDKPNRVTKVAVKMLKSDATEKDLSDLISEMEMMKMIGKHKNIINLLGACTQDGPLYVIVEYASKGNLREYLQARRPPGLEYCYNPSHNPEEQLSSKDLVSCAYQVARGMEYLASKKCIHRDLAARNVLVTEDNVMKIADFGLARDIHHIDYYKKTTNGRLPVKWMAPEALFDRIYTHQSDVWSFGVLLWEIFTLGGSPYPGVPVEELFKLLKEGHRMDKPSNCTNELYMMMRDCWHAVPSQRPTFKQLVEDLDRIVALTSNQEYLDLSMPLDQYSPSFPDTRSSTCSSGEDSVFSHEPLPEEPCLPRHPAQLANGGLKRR

Columns and labels:
[1] = target: T1, binary complex of FGFR1c ligand-binding domain with βKlotho ectodomain (murine; human) (UniProt Q99N32+P11362); assay: SPR competition: chimera with βKlotho-FGFR1c complex over immobilized FGF21 (competitor)
[2] = target: T1, binary complex of FGFR1c ligand-binding domain with βKlotho ectodomain (murine; human); assay: SPR competition: increasing chimera with a fixed concentration of βKlotho-FGFR1c complex over immobilized FGF21

binding [1]: binds
binding [2]: binds
B1: FGF2^ΔHBScore-FGF21^C-tail chimera (designed binder)
chain: MAAGSITTLPALPEDGGSGAFPPGHFKDPKRLYCKNGGFFLRIHPDGRVDGVREKSDPHIKLQLQAEERGVVSIKGVSANRYLAMKEDGRLLASKSVTDECFFFERLESNNYNTYRSRKYTSWYVALDQTGQYVLGSKTGPGQKAILFLPMPGLPPALPEPPGILAPQPPDVGSSDPLSMVGPSQGRSPSYAS
